# PubChem BioAssay AID1259254 | NCATS – 2017
# Test: 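Gene knock-downs that lead to re-replication, shown by excess G2 DNA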 (primary screen)
# Cells: human HCT116 colorectal cancer cells
# Reagent: single siRNA against human genes
# Time to read-out: 3 days
# Detection: 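Nuclei stained with Hoechst and imaged; cell-cycle phase assigned by DNA content; G2 share scaled per plate, non-targeting siRNA 0%, GMNN siRNA 100%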
# Scale: G2 robust z-score and G2 cells, % of GMNN control: higher = more G2 cells, more excess DNA replication; raw share of cells in G2: higher = larger share of cells with G2 DNA content
# Call rule: 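An siRNA counts as active if its G2 robust z-score lies at least 5 MADs above the screen median; here such calls match roughly 38% of GMNN control or more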
# The deposit covers about 59,000 reagents; below is a part drawn at random. About 1,550 of all reagents (2.6%) were called active. 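G2 share is only a proxy for re-replication; each gene was hit by three separate siRNAs, and active genes were retested.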 Raw values vary from plate to plate and are shown uncorrected. The numbers tell different reagents against one gene apart. Reagent sequences are not shown. Not stated in the record: the amount of reagent.
G2 robust z-score,"G2 cells, % of GMNN control",raw share of cells in G2 (%),Call,gene,reagent
7.29,54.3,28,active,RPS3A (ribosomal protein S3A),1
5.54,41.9,20.8,active,RPS3A (ribosomal protein S3A),2
2.31,19.2,10.3,inactive,RPS3A (ribosomal protein S3A),3
1.09,10.7,7.93,inactive,HCFC2 (host cell factor C2),1
-0.401,0.144,4.6,inactive,HCFC2 (host cell factor C2),2
-0.266,1.1,3.6,inactive,HCFC2 (host cell factor C2),3
-0.227,1.37,3.65,inactive,LAIR2 (leukocyte associated immunoglobulin like receptor 2),1
-1.42,-6.99,2.7,inactive,LAIR2 (leukocyte associated immunoglobulin like receptor 2),2
1.31,12.2,10.1,inactive,LAIR2 (leukocyte associated immunoglobulin like receptor 2),3
-0.223,1.4,3.07,inactive,"METRN (meteorin, glial cell differentiation regulator)",1
-0.599,-1.25,4.04,inactive,"METRN (meteorin, glial cell differentiation regulator)",2
1.27,11.9,9.93,inactive,"METRN (meteorin, glial cell differentiation regulator)",3
-0.989,-3.99,2.75,inactive,MYH14 (myosin heavy chain 14),1
-1.19,-5.37,3.19,inactive,MYH14 (myosin heavy chain 14),2
2.56,21,12.6,inactive,MYH14 (myosin heavy chain 14),3
1.13,10.9,9.36,inactive,TPP2 (tripeptidyl peptidase 2),1
-0.529,-0.756,4.64,inactive,TPP2 (tripeptidyl peptidase 2),2
0.302,5.1,5.81,inactive,TPP2 (tripeptidyl peptidase 2),3
-0.66,-1.67,3.85,inactive,RELT (RELT TNF receptor),1
-0.0126,2.88,7.01,inactive,RELT (RELT TNF receptor),2
0.352,5.45,7.3,inactive,RELT (RELT TNF receptor),3
5.11,38.9,22.4,active,SOCS3 (suppressor of cytokine signaling 3),1
0.389,5.7,6.16,inactive,SOCS3 (suppressor of cytokine signaling 3),2
-1.05,-4.41,1.79,inactive,SOCS3 (suppressor of cytokine signaling 3),3
-1.65,-8.61,1.61,inactive,PDZRN3 (PDZ domain containing ring finger 3),1
6.17,46.4,23.3,active,PDZRN3 (PDZ domain containing ring finger 3),2
-0.217,1.44,3.71,inactive,PDZRN3 (PDZ domain containing ring finger 3),3
-0.314,0.76,4.84,inactive,AAMDC (adipogenesis associated Mth938 domain containing),1
-0.568,-1.03,2.93,inactive,AAMDC (adipogenesis associated Mth938 domain containing),2
3.23,25.7,13.7,inactive,AAMDC (adipogenesis associated Mth938 domain containing),3
-0.171,1.77,4.42,inactive,TSPAN19 (tetraspanin 19),1
-0.727,-2.15,2.25,inactive,TSPAN19 (tetraspanin 19),2
4.51,34.7,15.2,inactive,TSPAN19 (tetraspanin 19),3
0.783,8.48,4.98,inactive,CNFN (cornifelin),1
-0.988,-3.99,2.78,inactive,CNFN (cornifelin),2
1.93,16.6,8.37,inactive,CNFN (cornifelin),3
0.147,4,6.74,inactive,KCNH7 (potassium voltage-gated channel subfamily H member 7),1
-0.357,0.453,4.94,inactive,KCNH7 (potassium voltage-gated channel subfamily H member 7),2
-0.62,-1.4,3.83,inactive,KCNH7 (potassium voltage-gated channel subfamily H member 7),3
0.0187,3.1,6.91,inactive,HTRA4 (HtrA serine peptidase 4),1
0.875,9.13,7.48,inactive,HTRA4 (HtrA serine peptidase 4),2
0.229,4.58,5.97,inactive,HTRA4 (HtrA serine peptidase 4),3

Look-ups from above.
AAMDC (adipogenesis associated Mth938 domain containing) #1, raw share of cells in G2 (%): 4.84
Entry of LAIR2 (leukocyte associated immunoglobulin like receptor 2) #3 in “G2 cells, % of GMNN control”: 12.2
For “G2 robust z-score”, SOCS3 (suppressor of cytokine signaling 3) #3 shows -1.05
AAMDC (adipogenesis associated Mth938 domain containing) #3, G2 robust z-score → 3.23
Under “G2 robust z-score”, HCFC2 (host cell factor C2) #1 shows 1.09
Under “G2 cells, % of GMNN control”, PDZRN3 (PDZ domain containing ring finger 3) #2 has 46.4

The results go on.
G2 robust z-score,"G2 cells, % of GMNN control",raw share of cells in G2 (%),Call,gene,reagent
3.97,30.9,15.5,inactive,TRIM36 (tripartite motif containing 36),1
1.32,12.3,9.45,inactive,TRIM36 (tripartite motif containing 36),2
8.56,63.2,34.1,active,TRIM36 (tripartite motif containing 36),3
0.756,8.29,7.67,inactive,DDX18 (DEAD-box helicase 18),1
9.5,69.8,29.8,active,DDX18 (DEAD-box helicase 18),2
0.723,8.05,8.19,inactive,DDX18 (DEAD-box helicase 18),3
2.1,17.7,8.86,inactive,LRTOMT,1
0.975,9.82,7.14,inactive,LRTOMT,2
1.45,13.2,7.65,inactive,LRTOMT,3
7.27,54.1,21.5,active,CFAP144 (cilia and flagella associated protein 144),1
-1.08,-4.65,1.83,inactive,CFAP144 (cilia and flagella associated protein 144),2
-0.865,-3.12,2.23,inactive,CFAP144 (cilia and flagella associated protein 144),3
-1.37,-6.67,2.37,inactive,STARD10 (StAR related lipid transfer domain containing 10),1
1.54,13.8,9.84,inactive,STARD10 (StAR related lipid transfer domain containing 10),2
1.65,14.6,8.63,inactive,STARD10 (StAR related lipid transfer domain containing 10),3
-1.54,-7.86,1.53,inactive,LINC00242 (long independently transcribed non-coding RNA 242),1
-1.54,-7.86,0.951,inactive,LINC00242 (long independently transcribed non-coding RNA 242),2
1.55,13.8,9.01,inactive,LINC00242 (long independently transcribed non-coding RNA 242),3
-0.723,-2.12,3.37,inactive,CD86 (CD86 molecule),1
0.96,9.72,8.43,inactive,CD86 (CD86 molecule),2
-0.957,-3.76,3.62,inactive,CD86 (CD86 molecule),3
1.31,12.2,8.16,inactive,TATDN1 (TatD DNase domain containing 1),1
0.379,5.64,5.13,inactive,TATDN1 (TatD DNase domain containing 1),2
-0.595,-1.22,2.03,inactive,TATDN1 (TatD DNase domain containing 1),3
2.06,17.4,11.1,inactive,ESCO1,1
2.88,23.2,14.9,inactive,ESCO1,2
-0.494,-0.508,5.43,inactive,ESCO1,3
